# Test results taken from US20200055934A1.
# Amino acid sequences for entries named in this document (tags omitted). A change or cut given only in a name is not applied to a line headed by its entry.
# UniProt Q15109: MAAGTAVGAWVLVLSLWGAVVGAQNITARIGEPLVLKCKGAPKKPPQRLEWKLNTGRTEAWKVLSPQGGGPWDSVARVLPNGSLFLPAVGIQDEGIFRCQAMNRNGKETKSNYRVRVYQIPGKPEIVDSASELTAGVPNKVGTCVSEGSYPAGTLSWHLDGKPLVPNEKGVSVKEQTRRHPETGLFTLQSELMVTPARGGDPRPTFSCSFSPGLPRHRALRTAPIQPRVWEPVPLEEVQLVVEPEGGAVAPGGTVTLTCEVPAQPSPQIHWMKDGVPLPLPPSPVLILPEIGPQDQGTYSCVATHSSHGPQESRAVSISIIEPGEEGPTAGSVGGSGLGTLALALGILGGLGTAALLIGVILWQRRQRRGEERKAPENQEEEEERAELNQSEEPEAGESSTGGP
# Results are given in words; binding and its absence hold for the method and conditions named. Some entries that bind do so weakly or less than the wild type.
# B1: AA4 anti-RAGE antibody (antibody, V domains shown)
# VH: QVQLQQSGAELVKPGASVKLSCKTSGYTFTNYYIYWVIQRPGHGLEWIGEINPSNGGTNFSERFKSRAKLTVDKPSSTAYMQLSSLTSDDSAVYYCTTNFDYWGQGSTLTVSS
# VL: DVLMTQTPLSLPVSLGDQASMSCRSSQNIVHNNGNTYLQWYLQKPGQSPKLLIYQVSNRFFGVPDRFSGSGSGTDFTLKISRVEAEDLGVYYCFQGSHLPLTFGAGTKLELK
# Target: Receptor for Advanced Glycation Endproducts (RAGE), human, full length (human) (UniProt Q15109)
# Test: stated in the internalisation example; binding assay not described
binder,measurement,value
B1,binding,binds
